The values below come from the supplement of paper PMC10011410.

Values are raw readings; no control value is given beside them.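 Values average three technical replicates, each on its own plate. On all plates, reagent-free control wells corrected for intrinsic cell fluorescence and DMSO-treated wells acted as vehicle controls. No hit or active cutoff is set for these live-cell readings.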

Test [1] deals with U-2 OS. Kind of test: AUC of caspase 3/7-positive object count (AUC (object count x time)); higher = more apoptotic or dead cells. Here is the method: (§1)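 Live-cell Incucyte imaging of U-2 OS cells with Caspase-3/7 Green and Cytotox Red reagents. Compounds were tested mostly at 5, 10 and 20 uM, and cells were imaged every 4 h for up to 60 h. Value is the area under the curve of positive object counts over time, per channel: green = caspase 3/7, red = membrane-compromised, overlap = both.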

Test [2] deals with U-2 OS. Briefly: AUC of Cytotox red (membrane-compromised) object count (AUC (object count x time)); higher = more apoptotic or dead cells. The procedure: as §1

With `Cc1ccc(C(=O)N(CCCN)[C@@H](c2oc3cc(Cl)ccc3c(=O)c2Cc2ccccc2)C(C)C)cc1.Cl`, the “AUC of caspase 3/7-positive object count” value in test [1] (5 µM) was 374; in test [1] (10 µM), 636; in test [1] (20 µM) it was 214. The “AUC of Cytotox red” value in test [2] (5 µM) worked out at 374; in test [2] (10 µM), 1350; in test [2] (20 µM) it was 1420.

Take `Cc1nc(Nc2ncc(C(=O)Nc3c(C)cccc3Cl)s2)cc(N2CCN(CCO)CC2)n1`: the “AUC of caspase 3/7-positive object count” value in test [1] (5 µM) turned out to be 138; in test [1] (10 µM), 221; in test [1] (20 µM), 455. In addition, the “AUC of Cytotox red” value in test [2] (5 µM) was 95; in test [2] (10 µM), 170; in test [2] (20 µM), 390.

Regarding `CC1(C)CC[C@]2(C(=O)n3ccnc3)CC[C@]3(C)[C@H](C(=O)C=C4[C@@]5(C)C=C(C#N)C(=O)C(C)(C)[C@@H]5CC[C@]43C)[C@@H]2C1`, the “AUC of caspase 3/7-positive object count” value in test [1] (5 µM) was found to be 112; in test [1] (10 µM) it was 311; in test [1] (20 µM), 632. Moreover, the “AUC of Cytotox red” value came to 149 in test [2] (5 µM), 355 in test [2] (10 µM) and 934 in test [2] (20 µM).

Regarding `Nc1nc(-c2ccccc2)[n+](-c2ccccc2)s1`, the “AUC of caspase 3/7-positive object count” value worked out at 24.9 in test [1] (5 µM), 33.4 in test [1] (10 µM) and 29 in test [1] (20 µM). Also, the “AUC of Cytotox red” value in test [2] (5 µM) stood at 38.8; in test [2] (10 µM), 46.4; in test [2] (20 µM), 34.7.

As to `CC(C)C[C@H](NC(=O)[C@H](CCc1ccccc1)NC(=O)CN1CCOCC1)C(=O)N[C@@H](Cc1ccccc1)C(=O)N[C@@H](CC(C)C)C(=O)[C@@]1(C)CO1`, the results for the “AUC of caspase 3/7-positive object count” value in test [1] (5 µM), in test [1] (10 µM) and in test [1] (20 µM) were 1280, 1280 and 1210, respectively. Moreover, the “AUC of Cytotox red” value in test [2] (5 µM) came to 806; in test [2] (10 µM), 972; in test [2] (20 µM) it was 1010.

For the compound `CS(=O)(=O)OCCCCOS(C)(=O)=O`, the “AUC of caspase 3/7-positive object count” value in test [1] (5 µM) worked out at 32.6; in test [1] (10 µM) it was 24.6; in test [1] (20 µM), 47.8. Further, the entries for the “AUC of Cytotox red” value in test [2] (5 µM), in test [2] (10 µM) and in test [2] (20 µM) were 52.4, 51.1 and 72.7, respectively.

As to `Cc1cc(NC(=O)c2cccc(NC(=O)/C=C/CN(C)C)c2)ccc1Nc1nccc(-c2cccnc2)n1`, the “AUC of caspase 3/7-positive object count” value in test [1] (5 µM) is 48.5; in test [1] (10 µM), 130; in test [1] (20 µM), 621. For the same compound, the “AUC of Cytotox red” value in test [2] (5 µM) is 43.9; in test [2] (10 µM) it was 83.5; in test [2] (20 µM), 425.

Regarding `CN(N=O)C(=O)N[C@@H]1[C@@H](O)[C@H](O)[C@@H](CO)O[C@@H]1O`, the results for the “AUC of caspase 3/7-positive object count” value in test [1] (5 µM), in test [1] (10 µM) and in test [1] (20 µM) were 18.9, 15.3 and 27.7, respectively. The “AUC of Cytotox red” value in test [2] (5 µM) was 40.4; in test [2] (10 µM) it was 36.3; in test [2] (20 µM), 60.6.

Turning to `O=S1(=O)C=Cc2ccccc21`, the “AUC of caspase 3/7-positive object count” value in test [1] (5 µM) came to 76.4; in test [1] (10 µM), 89.9; in test [1] (20 µM), 443. Further, the “AUC of Cytotox red” value in test [2] (5 µM) was found to be 45.4; in test [2] (10 µM), 71; in test [2] (20 µM), 339.

Consider `COc1ccc(/C=C/C(=O)O[C@@H]2[C@H](O[C@@H]3O[C@@H](C)[C@H](O)[C@@H](O)[C@H]3O)[C@@H](O[C@@H]3O[C@@H](C)[C@H](O[C@@H]4OC[C@@H](O[C@@H]5O[C@H](CO)[C@H](O)[C@H](O)[C@H]5O)[C@H](O)[C@H]4O)[C@@H](O)[C@H]3O)[C@H](OC(=O)[C@]34CCC(C)(C)C[C@H]3C3=CC[C@@H]5[C@@]6(C)C[C@H](O)[C@H](O[C@@H]7O[C@H](CO)[C@@H](O)[C@H](O)[C@H]7O)[C@@](C)(C(=O)O)[C@@H]6CC[C@@]5(C)[C@]3(CO)CC4)O[C@@H]2C)cc1`, for which the “AUC of caspase 3/7-positive object count” value is 93 in test [1] (5 µM), 136 in test [1] (10 µM) and 142 in test [1] (20 µM). The “AUC of Cytotox red” value in test [2] (5 µM) stood at 85.8; in test [2] (10 µM), 218; in test [2] (20 µM) it was 586.

Turning to `O=C(/C(C(N1CC2=CC=CC=C2)=O)=C/C3=C(C)C=C(O)C=C3C)N(CC4=CC=CC=C4)C1=O`, the “AUC of caspase 3/7-positive object count” value was determined as 36.5 in test [1] (5 µM); 68.3 in test [1] (10 µM); 217 in test [1] (20 µM); 404 in test [1] (40 µM); 1250 in test [1] (80 µM). For the same compound, the “AUC of Cytotox red” value in test [2] (5 µM) came out at 23.4; in test [2] (10 µM), 18.9; in test [2] (20 µM) it was 133; in test [2] (40 µM), 355; in test [2] (80 µM) it was 1100.

As for `CC[C@@H]1/C=C/C=C/C[C@H](C)[C@@H](O)[C@](C)(O)C(=O)[C@H](C)[C@@H](O)[C@H](C)C(=O)[C@H](C)[C@@H](O)[C@H](C)/C=C/C(=O)O[C@H]2[C@@H](C)[C@@H](CC1)O[C@@]1(CC[C@@H](C)[C@@H](C[C@H](C)O)O1)[C@@H]2C`, the “AUC of caspase 3/7-positive object count” value in test [1] (5 µM) came out at 39.9; in test [1] (10 µM), 43.9; in test [1] (20 µM), 526. The “AUC of Cytotox red” value came to 60.5 in test [2] (5 µM), 54.2 in test [2] (10 µM) and 505 in test [2] (20 µM).

Consider `O=C1O[C@H]2[C@@H]3OC(=O)c4cc(O)c(O)c(O)c4-c4c(O)c(O)c5oc(=O)c6c(c(O)c(O)c7oc(=O)c4c5c76)-c4c(cc(O)c(O)c4O)C(=O)OC[C@H]3OC(O)[C@@H]2OC(=O)c2cc(O)c(O)c(O)c2-c2c1cc(O)c(O)c2O` (some centres not stated), for which the results for the “AUC of caspase 3/7-positive object count” value in test [1] (5 µM), in test [1] (10 µM) and in test [1] (20 µM) were 55.6, 50 and 128, respectively. The “AUC of Cytotox red” value in test [2] (5 µM) was 1.25; in test [2] (10 µM) it was -0.419; in test [2] (20 µM), 3.08.

As for `C[C@]12O[C@H](C[C@]1(O)CO)n1c3ccccc3c3c4c(c5c6ccccc6n2c5c31)CNC4=O`, the “AUC of caspase 3/7-positive object count” value in test [1] (5 µM) is 767; in test [1] (10 µM), 852; in test [1] (20 µM), 1490. For the same compound, the “AUC of Cytotox red” value in test [2] (5 µM) was determined as 548; in test [2] (10 µM), 415; in test [2] (20 µM), 53.

Take `CC1=C2C(=CO[C@H](C)[C@H]2C)C(=O)C(C(=O)O)=C1O`: the “AUC of caspase 3/7-positive object count” value in test [1] (5 µM) came to 34.5; in test [1] (10 µM), 31; in test [1] (20 µM) it was 18.7. In addition, the “AUC of Cytotox red” value was determined as 39.3 in test [2] (5 µM), 43.2 in test [2] (10 µM) and 31.9 in test [2] (20 µM).

On to `CC(C)(C)C(=O)OCOc1cccc2ccccc12`, for which the “AUC of caspase 3/7-positive object count” value in test [1] (5 µM) was 21.2; in test [1] (10 µM) it was 27.1; in test [1] (20 µM), 93.6. Moreover, the “AUC of Cytotox red” value in test [2] (5 µM) is 31.2; in test [2] (10 µM), 38.6; in test [2] (20 µM), 125.

In the case of `Cc1ccc(C(=O)N(CCCN)[C@@H](c2nc3cc(Cl)ccc3c(=O)n2Cc2ccccc2)C(C)C)cc1`, the “AUC of caspase 3/7-positive object count” value in test [1] (5 µM) turned out to be 296; in test [1] (10 µM), 534; in test [1] (20 µM), 167. Besides, the “AUC of Cytotox red” value in test [2] (5 µM) turned out to be 258; in test [2] (10 µM), 504; in test [2] (20 µM) it was 1240.

Regarding `Cc1csc(=NC2CCCCC2)n1/N=C/c1ccc(O)c(O)c1O`, the “AUC of caspase 3/7-positive object count” value in test [1] (5 µM) came to 44.1; in test [1] (10 µM), 70.9; in test [1] (20 µM), 370. The figures for the “AUC of Cytotox red” value in test [2] (5 µM), in test [2] (10 µM) and in test [2] (20 µM) were 27.5, 37.6 and 45.3, respectively.
